Data reported in patent US9561186B2, “Method for improving the bioavailability of low aqueous solubility drugs” (PHARMATHEN S.A., priority 2012, dated 2017).
For some assays here: At least one structure is not confirmed: it was looked up by name or label, or the drawing left a doubt. Some results were stated once for a whole list of compounds, not compound by compound.

Legend:
[1] = poorly water soluble category; cited from earlier work
[2] = Comparative dissolution profiles of tablets made with 2-pyrrolidone or ethanol as solubilizing agent; type: physicochemical; conditions: within 90 min

SMILES	solubility in water [1]	% released ([2]; using 2-pyrrolidone along with silicon dioxide)	% released ([2]; when ethanol is used)
CN1CC(=O)N2[C@H](c3ccc4c(c3)OCO4)c3[nH]c4ccccc4c3C[C@@H]2C1=O [Tadalafil]	below 0.1 mg/ml	More than 90%	less than 20%
O=C(c1ccc(OCCN2CCCCC2)cc1)c1c(-c2ccc(O)cc2)sc2cc(O)ccc12 [Raloxifene]	below 0.1 mg/ml		
Cc1oncc1C(=O)Nc1ccc(C(F)(F)F)cc1 [Leflunomide]	below 0.1 mg/ml		
